Assay [1] concerns the target His-tagged DCAF12-FL (human) (UniProt Q5T6F0). Put plainly: cryo-EM structure; DDB1–DCAF12–MAGEA3 complex, co-expressed and co-purified; 0.2 mg/mL on grids; 3.17 Å map.
Assay [2] concerns the target T1, FITC-labeled control peptide derived from Histone H3 K9A mutant variant (H3K9A).
T1 sequence (peptide, fluorescein isothiocyanate (FITC) on the N-terminus): ARTKQTARASTGGK
Put plainly: fluorescence polarisation; direct binding; proteins titrated from 4 µM in two-fold dilutions against 20 nM N-terminally FITC-labeled peptide; 20 mM Tris pH 7.5, 150 mM NaCl, 5% glycerol, 0.5 mM TCEP, 0.01% Triton; 45 min at room temperature; both purified.

No constants are given. Whether binding was seen depends on the method and setting. Some binding calls cover weakened binding; strength is not graded here. For some assays here: Tags and fused reporters may be left off the sequences shown.

As to “MAGEA3 212-amino acid construct (from UniProt P43357 104-314) (domain or fragment)”, the binding result in assay [1] is “binds”.
“DCAF12 (Δ1–78) (from UniProt Q5T6F0 79-453) (domain or fragment)”: in assay [2], the binding result was “no binding (tested: 4 µM highest concentration)”.

(Values after publication PMC11044963, “Probing the CRL4^DCAF12 interactions with MAGEA3 and CCT5 di-Glu C-terminal degrons” (PNAS Nexus, 2024).)
